# The whole screen tested about 340,000 compounds, of which about 1,300 (0.38%) were called active. Inconclusive results, whose numbers are uncertain, are shown with a selection of clear calls.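 How the source made its calls: active means maximum activity change below -70%; inconclusive means maximum activity change between -70% and -50%; inactive means maximum activity change above -50%.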
# By UniProt entry, the sequences of proteins in these tests, tags left out.
# UniProt Q12809, whole entry, looked up: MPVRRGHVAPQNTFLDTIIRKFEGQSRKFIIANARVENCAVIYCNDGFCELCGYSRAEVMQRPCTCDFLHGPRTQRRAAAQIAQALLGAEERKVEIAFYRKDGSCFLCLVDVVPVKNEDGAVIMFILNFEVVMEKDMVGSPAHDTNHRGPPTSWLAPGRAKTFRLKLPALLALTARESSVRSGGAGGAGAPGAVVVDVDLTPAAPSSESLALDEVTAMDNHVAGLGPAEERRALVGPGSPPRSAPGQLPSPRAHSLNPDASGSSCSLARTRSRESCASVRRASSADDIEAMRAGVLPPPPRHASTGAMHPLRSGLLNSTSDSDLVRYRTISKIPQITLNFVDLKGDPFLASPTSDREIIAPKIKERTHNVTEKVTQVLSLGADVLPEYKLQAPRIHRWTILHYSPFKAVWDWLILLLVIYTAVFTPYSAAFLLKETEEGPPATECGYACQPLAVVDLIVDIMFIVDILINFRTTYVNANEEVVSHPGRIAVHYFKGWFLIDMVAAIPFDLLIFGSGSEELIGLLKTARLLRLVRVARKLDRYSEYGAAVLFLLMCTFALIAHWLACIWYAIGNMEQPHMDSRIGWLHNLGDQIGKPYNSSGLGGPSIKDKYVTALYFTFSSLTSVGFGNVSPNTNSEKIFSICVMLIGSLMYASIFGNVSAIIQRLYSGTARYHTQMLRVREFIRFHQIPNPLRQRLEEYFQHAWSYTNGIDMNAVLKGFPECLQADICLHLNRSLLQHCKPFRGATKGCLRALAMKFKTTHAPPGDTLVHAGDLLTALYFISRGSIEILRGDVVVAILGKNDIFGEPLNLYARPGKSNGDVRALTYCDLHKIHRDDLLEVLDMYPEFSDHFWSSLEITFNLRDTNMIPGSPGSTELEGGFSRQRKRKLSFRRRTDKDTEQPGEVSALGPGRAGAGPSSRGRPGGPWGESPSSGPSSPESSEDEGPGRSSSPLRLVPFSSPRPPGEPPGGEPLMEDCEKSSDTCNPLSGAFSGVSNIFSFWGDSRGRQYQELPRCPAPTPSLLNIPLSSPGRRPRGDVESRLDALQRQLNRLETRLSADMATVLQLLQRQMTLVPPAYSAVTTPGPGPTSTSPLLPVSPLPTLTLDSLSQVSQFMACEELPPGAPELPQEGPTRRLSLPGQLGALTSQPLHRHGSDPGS
# Biological target: Voltage-gated inwardly rectifying potassium channel KCNH2 (Homo sapiens) (UniProt Q12809)
# Assay: qHTS for Inhibitors of KCHN2 3.1: Wildtype qHTS
# Settings: U2OS, BacMam KCNH2, thallium flux FluxOr; at 1.84 µM, stronger effect = lower value
# In short: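 U2OS cells transduced with wild-type KCNH2 virus are loaded with FluxOr dye for 45 min, and thallium flux is measured in kinetic reads before and after stimulation buffer. Rate constants are normalized to DMSO controls.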
# On the % scale 0 is the no-effect control and ±100 the full control effect.
row,SMILES,activity change
1,Cc1ccsc1C(=O)C1CCCN(Cc2cccn2-c2ccc(Cl)cn2)C1 (configuration not stated),active: -107%
2,COc1ccc(-c2n[nH]c(=S)n2-c2ccc(C)cc2C)cc1,inactive: 9.03%
3,Cc1ccc(N(CCCCN2C(=O)c3ccccc3C2=O)C(=O)c2cccc([N+](=O)[O-])c2)cc1,inconclusive: -66.9%
4,O=C(NCc1ccco1)/C(=C/c1ccco1)NC(=O)c1ccco1,inconclusive: -55.1%
5,CCOC(=O)C1(CCOc2ccccc2)CCN(C(=O)c2ccc(-n3cccn3)cc2)CC1,inconclusive: -64.8%
6,Cc1ccccc1N1C(S)=C(C#N)C(=O)NC1c1cccs1 (configuration not stated),inactive: -6.12%
7,O=C(NN=Cc1ccccc1O)C(O)c1ccccc1 (configuration not stated),inactive: 0.362%
8,Cc1ccc2c(c1)Oc1ccc([N+](=O)[O-])cc1C(=O)N2,inconclusive: -54.4%
9,NNC(=S)Nc1ccc(S(=O)(=O)N2CCOCC2)cc1,inactive: -0.0303%
10,CC(C)(C)c1ccc(C(=O)O)c(C(=O)c2ccc(C(=O)O)cc2)c1,inactive: 17.6%
11,CCCCCCCCCCOC(=O)Cn1c(COc2ccc(Cl)cc2)[n+](C)c2ccccc21,inconclusive: -53.5%
12,CCOC(=O)C1(CCc2ccccc2)CCN(Cc2ccc(O)cc2)CC1,active: -113%
13,Cc1ccc(COc2ccc(/C=N/NC(=O)c3nnn(-c4nonc4N)c3COc3ccc(F)cc3)cc2)cc1,inconclusive: -56.4%
14,O=C(CCCc1nc(-c2ccccc2Cl)no1)NC1CCCC1,inactive: -6.07%
15,Cn1c(/C(C#N)=C/c2ccc(O)cc2)nc2ccccc21,inconclusive: -55.4%
16,CCCC(=O)Nc1cc(C)c(NC(=O)c2ccccn2)cn1,inconclusive: -54.7%
17,CCOc1ccc(CN2CCN(Cc3cccn3-c3nccs3)CC2CCO)cc1 (configuration not stated),active: -134%
18,CSc1ccc(OC2CCN(Cc3ccccc3)CC2)cc1,inconclusive: -60.1%
19,CCc1ccc(N2C(=O)C3NN=C(C(=O)OCc4ccccc4)C3C2=O)cc1 (configuration not stated),inactive: -9.33%
20,COc1ccc(CNS(=O)(=O)c2c(C(=O)N3CCCCC3)c(C)n(C)c2C)cc1,inconclusive: -54.5%
21,COc1ccc(-c2cc3c(=O)n(CC(=O)Nc4cccc(Cl)c4)ncn3n2)cc1,inconclusive: -65.7%

# For convenience, part of the list above.
row,SMILES,activity change
5,CCOC(=O)C1(CCOc2ccccc2)CCN(C(=O)c2ccc(-n3cccn3)cc2)CC1,inconclusive: -64.8%
6,Cc1ccccc1N1C(S)=C(C#N)C(=O)NC1c1cccs1 (configuration not stated),inactive: -6.12%

# Further records follow.

row,SMILES,activity change
1,COc1ccc(-c2ccccc2)c2oc(-c3ccco3)cc(=O)c12,inconclusive: -56.1%
2,O=C(c1ccc(-c2cccc(Cl)c2)o1)N1CCN(c2ccc([N+](=O)[O-])cc2)CC1,inconclusive: -63.8%
3,c1cncc(CSc2nnc3ccc(-c4ccncc4)nn23)c1,active: -79.2%
4,O=C(O)CCCCCNCc1ccncc1,inconclusive: -61.1%
5,CCOC(=O)c1cc2sccc2n1CC(=O)N1CCCc2ccccc21,inactive: -8.49%
6,c1ccc(CCNCCCOc2cccc3ccccc23)cc1,inactive: 30.2%
7,COc1ccc(S(=O)(=O)N2CCC(n3cnc4cc(C(F)(F)F)ccc43)CC2)cc1,active: -87.3%
8,O=C(Nc1ccccc1N1CCN(C(=O)c2ccccc2)CC1)c1cc(Br)ccc1Cl,inconclusive: -68.3%
9,S=c1nc(Cc2ccc(Cl)cc2)[nH]c2ccccc12,active: -150%
10,CCN(CC(=O)Nc1c(F)cccc1F)C(=O)c1cccc(S(=O)(=O)NCc2ccccc2)c1,active: -219%
11,CC1(C)Cc2c(C#N)c(NCC3CCCO3)nc(-c3ccco3)c2CO1 (configuration not stated),inactive: -12.7%
12,CN(Cc1ccc2c(c1)OCCO2)C(=O)CN1C(=O)NC2(CCCCC2)C1=O,inconclusive: -54.2%
13,COc1ccc(C(=O)N/N=C/c2ccc(OC)c(OS(=O)(=O)c3ccccc3)c2)cc1,active: -151%
14,Cc1cccc(NC(=O)CCS(=O)(=O)c2cc3c(cc2Cl)NC(=O)CO3)c1,inactive: 1.01%
15,O=C(c1ccc(Br)cc1)N1CCC2(CC1)NCCc1[nH]cnc12,inconclusive: -50.1%
16,COc1ccc2cc(Br)ccc2c1CC(=O)NC1CC(C)(C)NC(C)(C)C1,active: -123%
17,O=P(CCNCc1ccco1)(c1ccccc1)c1ccccc1,inactive: -5.58%
18,O=C(Nc1ccc(S(=O)(=O)N2CCCCC2)cc1)c1ccc(CN2CCc3ccccc3C2)cc1,inconclusive: -51.2%
19,C[C@H](O)[C@@H]1CN2CCc3c([nH]c4ccc(-c5ccc6c(c5)OCO6)cc34)[C@@H]2C[C@@H]1N(C)C(=O)NC1CCCCC1,inconclusive: -53%
20,Cc1ccc(C)c(N2CCN(C(=S)Nc3ccc4nc(N5CCN(C)CC5)cc(C)c4c3)CC2)c1,active: -115%
21,CC[C@@H](C)[C@@H]1CN([C@@H](CN2CCC[C@H]2CN2C(N)=NC[C@@H]2Cc2ccccc2)C(C)C)C(=N)N1CCCC1CCCC1,inconclusive: -59.5%

# Reference: PubChem BioAssay AID720551 (National Center for Advancing Translational Sciences (NCATS), 2013)
